# Measured values from the supplement of paper PMC8728848.
# The list shows a part of the results.
# Experiments:
# Test in all cases: glycan array binding signal (z-score within array); higher = stronger binding
# Conditions in all cases: glycan notation: IUPAC condensed, linker removed
# [1] = biological target: Fuc(a1-2)Gal(b1-4)GlcNAc(b1-3)Gal(b1-4)GlcNAc(b1-3)Gal(b1-4)GlcNAc
# In short: (§1)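 The binding signal is a Z-score computed within each array and averaged over linkers. Arrays of the same protein sequence at different concentrations or buffers were also averaged together. Data originate from 3228 arrays in the Consortium for Functional Glycomics database, kept only where the protein sequence was available.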
# [2] = biological target: Fuc(a1-2)Gal(b1-4)GlcNAc(b1-3)GalNAc
# In short: as §1
# [3] = biological target: Fuc(a1-2)Gal(b1-4)GlcNAc(b1-3)[Fuc(a1-2)Gal(b1-4)GlcNAc(b1-6)]GalNAc
# In short: as §1
# [4] = biological target: Fuc(a1-2)Gal(b1-4)GlcNAc(b1-3)[Fuc(a1-3)[Gal(b1-4)]GlcNAc(b1-6)]Gal(b1-4)Glc
# In short: as §1
# [5] = biological target: Fuc(a1-2)Gal(b1-4)GlcNAc(b1-6)GalNAc
# In short: as §1
# [6] = biological target: Fuc(a1-2)Gal(b1-4)GlcNAc6S
# In short: as §1
# [7] = biological target: Fuc(a1-2)Gal(b1-4)[Fuc(a1-3)]GlcNAc
# In short: as §1
# [8] = biological target: Fuc(a1-2)Gal(b1-4)[Fuc(a1-3)]GlcNAc(b1-2)Man(a1-3)[Fuc(a1-2)Gal(b1-4)[Fuc(a1-3)]GlcNAc(b1-2)Man(a1-6)]Man(b1-4)GlcNAc(b1-4)[Fuc(a1-6)]GlcNAc
# In short: as §1
# [9] = biological target: Fuc(a1-2)Gal(b1-4)[Fuc(a1-3)]GlcNAc(b1-2)[Fuc(a1-2)Gal(b1-4)[Fuc(a1-3)]GlcNAc(b1-4)]Man(a1-3)[Fuc(a1-2)Gal(b1-4)[Fuc(a1-3)]GlcNAc(b1-2)Man(a1-6)]Man(b1-4)GlcNAc(b1-4)GlcNAc
# In short: as §1
# [10] = biological target: Fuc(a1-2)Gal(b1-4)[Fuc(a1-3)]GlcNAc(b1-3)Gal(b1-4)[Fuc(a1-3)]GlcNAc
# In short: as §1
# [11] = biological target: Fuc(a1-2)Gal(b1-4)[Fuc(a1-3)]GlcNAc(b1-3)Gal(b1-4)[Fuc(a1-3)]GlcNAc(b1-3)Gal(b1-4)[Fuc(a1-3)]GlcNAc
# In short: as §1
# [12] = biological target: Fuc(a1-2)Gal(b1-4)[Fuc(a1-3)]GlcNAc(b1-3)GalNAc
# In short: as §1
# [13] = biological target: Fuc(a1-2)Gal(b1-4)[Fuc(a1-3)]GlcNAc(b1-3)[Neu5Ac(a2-6)Gal(b1-4)GlcNAc(b1-6)]Gal(b1-4)Glc
# In short: as §1
# [14] = biological target: Fuc(a1-2)Gal3S(b1-4)GlcNAc
# In short: as §1
# [15] = biological target: Fuc(a1-2)Gal6S(b1-3)GlcNAc
# In short: as §1
# [16] = biological target: Fuc(a1-2)Gal6S(b1-3)GlcNAc6S
# In short: as §1
# Fuc(a1-2)Gal6S(b1-4)Glc = biological target: Fuc(a1-2)Gal6S(b1-4)Glc
# In short: as §1
# [17] = biological target: Fuc(a1-2)Gal6S(b1-4)Glc6S
# In short: as §1
# Fuc(a1-2)[Gal(a1-3)]Gal = biological target: Fuc(a1-2)[Gal(a1-3)]Gal
# In short: as §1
# [18] = biological target: Fuc(a1-2)[Gal(a1-3)]Gal(b1-3)GalNAc
# In short: as §1
# [19] = biological target: Fuc(a1-2)[Gal(a1-3)]Gal(b1-3)GalNAc(b1-3)Gal(a1-4)Gal(b1-4)Glc
# In short: as §1
# [20] = biological target: Fuc(a1-2)[Gal(a1-3)]Gal(b1-3)GlcNAc
# In short: as §1
# [21] = biological target: Fuc(a1-2)[Gal(a1-3)]Gal(b1-3)GlcNAc(b1-2)Man(a1-3)[Fuc(a1-2)[Gal(a1-3)]Gal(b1-3)GlcNAc(b1-2)Man(a1-6)]Man(b1-4)GlcNAc(b1-4)GlcNAc
# In short: as §1
# [22] = biological target: Fuc(a1-2)[Gal(a1-3)]Gal(b1-3)GlcNAc(b1-2)Man(a1-3)[Fuc(a1-2)[Gal(a1-3)]Gal(b1-3)GlcNAc(b1-2)Man(a1-6)]Man(b1-4)GlcNAc(b1-4)[Fuc(a1-6)]GlcNAc
# In short: as §1
# [23] = biological target: Fuc(a1-2)[Gal(a1-3)]Gal(b1-3)GlcNAc(b1-3)GalNAc
# In short: as §1
# [24] = biological target: Fuc(a1-2)[Gal(a1-3)]Gal(b1-3)GlcNAc(b1-6)GalNAc
# In short: as §1
# [25] = biological target: Fuc(a1-2)[Gal(a1-3)]Gal(b1-4)Glc
# In short: as §1
# [26] = biological target: Fuc(a1-2)[Gal(a1-3)]Gal(b1-4)GlcNAc
# In short: as §1
# [27] = biological target: Fuc(a1-2)[Gal(a1-3)]Gal(b1-4)GlcNAc(b1-2)Man
# In short: as §1
# [28] = biological target: Fuc(a1-2)[Gal(a1-3)]Gal(b1-4)GlcNAc(b1-2)Man(a1-3)[Fuc(a1-2)[Gal(a1-3)]Gal(b1-4)GlcNAc(b1-2)Man(a1-6)]Man(b1-4)GlcNAc(b1-4)GlcNAc
# In short: as §1
binder,measurement,setting,value
Pwp1 (Candida glabrata) (protein) MGSSHHHHHHSSGLVPRGSHMASANPISITNVCQFPDNWARTAGFQATTVRLGLTIASNTYKELLNYPGLFNFATQKATVTQPNFSISGFPFFTGLYGLTVWPINLLVELQGYFVPPESGNYTFTLQGSDDAAILFFANPSTFACGSQNDWPQPREADITVTDTLVPSRTLYLVKGVAYPIRIAYYNGSGDGKLNVSFKDPSGTTHTDWKGYVWQYSNTCSTCTYT,glycan array binding signal (z-score),[1],0.308
same,glycan array binding signal (z-score),[2],-0.125
same,glycan array binding signal (z-score),[3],0.026
same,glycan array binding signal (z-score),[4],-0.159
same,glycan array binding signal (z-score),[5],-1.29
same,glycan array binding signal (z-score),[6],0.741
same,glycan array binding signal (z-score),[7],0.777
same,glycan array binding signal (z-score),[8],0.92
same,glycan array binding signal (z-score),[9],0.256
same,glycan array binding signal (z-score),[10],-0.684
same,glycan array binding signal (z-score),[11],-1.96
same,glycan array binding signal (z-score),[12],0.873
same,glycan array binding signal (z-score),[13],0.323
same,glycan array binding signal (z-score),[14],0.714
same,glycan array binding signal (z-score),[15],0.863
same,glycan array binding signal (z-score),[16],0.114
same,glycan array binding signal (z-score),Fuc(a1-2)Gal6S(b1-4)Glc,-0.845
same,glycan array binding signal (z-score),[17],0.762
same,glycan array binding signal (z-score),Fuc(a1-2)[Gal(a1-3)]Gal,-0.123
same,glycan array binding signal (z-score),[18],1.05
same,glycan array binding signal (z-score),[19],-0.81
same,glycan array binding signal (z-score),[20],1.08
same,glycan array binding signal (z-score),[21],-0.014
same,glycan array binding signal (z-score),[22],0.125
same,glycan array binding signal (z-score),[23],0.778
same,glycan array binding signal (z-score),[24],0.51
same,glycan array binding signal (z-score),[25],-0.087
same,glycan array binding signal (z-score),[26],0.138
same,glycan array binding signal (z-score),[27],0.504
same,glycan array binding signal (z-score),[28],-1.83

# Eight consecutive entries already listed:
binder,measurement,setting,value
Pwp1 (Candida glabrata) (protein) MGSSHHHHHHSSGLVPRGSHMASANPISITNVCQFPDNWARTAGFQATTVRLGLTIASNTYKELLNYPGLFNFATQKATVTQPNFSISGFPFFTGLYGLTVWPINLLVELQGYFVPPESGNYTFTLQGSDDAAILFFANPSTFACGSQNDWPQPREADITVTDTLVPSRTLYLVKGVAYPIRIAYYNGSGDGKLNVSFKDPSGTTHTDWKGYVWQYSNTCSTCTYT,glycan array binding signal (z-score),[5],-1.29
same,glycan array binding signal (z-score),[6],0.741
same,glycan array binding signal (z-score),[7],0.777
same,glycan array binding signal (z-score),[8],0.92
same,glycan array binding signal (z-score),[9],0.256
same,glycan array binding signal (z-score),[10],-0.684
same,glycan array binding signal (z-score),[11],-1.96
same,glycan array binding signal (z-score),[12],0.873
